# Results deposited as PubChem BioAssay AID743121 (NCATS, 2013).
# Test: 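Partners whose loss is lethal together with topoisomerase I blockade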 (primary screen)
# Cells: MDA-MB-231 cells, a human breast cancer line
# Knock-down reagent: single siRNA against human genes, 20 nM siRNA (0.8 pmol per well)
# Duration: 120 h (drug added 48 h after transfection, read 72 h later)
# Conditions: camptothecin 20 nM (about EC30) for 72 h; vehicle 0.1% DMSO in parallel plates
# Detection: 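Cell viability by ATP luminescence (CellTiter-Glo) as % of non-targeting siRNA wells, and the log2 ratio of viability without drug over viability with camptothecin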
# Direction: log2 vehicle/camptothecin viability: higher = stronger sensitisation to camptothecin; viability with camptothecin and viability without drug: higher = more viable cells
# Rule for the call: 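Active genes have an RSA gene-level p-value below 0.001, computed from the ratios of their separate siRNAs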
# Shown is a random part of about 26,000 deposited reagents. Of all reagents, 167 (0.63%) are marked active. 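Calls are per gene from RSA p-values that are not deposited; an individual active-marked siRNA can sensitise only weakly.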 Entries without a mark were called inactive. The numbers tell different reagents against one gene apart.
gene,reagent no.,log2 vehicle/camptothecin viability,viability with camptothecin (% of control),viability without drug (% of control)
LIMK1 (GeneID 3984),1,-0.218,92.4,79.4
LIMK1 (GeneID 3984),2,-0.143,108,97.7
LIMK1 (GeneID 3984),3,0.509,51.6,73.4
LIMK1 (GeneID 3984),4,-0.0719,39.6,37.7
CNKSR3 (GeneID 154043),1,0.0715,49.6,52.1
CNKSR3 (GeneID 154043),2,-0.384,86.8,66.5
CNKSR3 (GeneID 154043),3,-0.132,111,101
CNKSR3 (GeneID 154043),4,-0.0935,55.2,51.7
EIF2AK2 (GeneID 5610),1,-0.325,115,91.5
EIF2AK2 (GeneID 5610),2,-0.298,75.4,61.4
EIF2AK2 (GeneID 5610),3,-0.111,105,97.5
EIF2AK2 (GeneID 5610),4,0.196,34.4,39.4
OSBP (GeneID 5007),1,-0.591,79.9,53
OSBP (GeneID 5007),2,-0.429,100,74.4
OSBP (GeneID 5007),3,0.0788,109,115
OSBP (GeneID 5007),4,0.0626,99.5,104
C5AR2 (GeneID 27202),1,-0.428,57,42.4
C5AR2 (GeneID 27202),2,-0.254,83.8,70.3
C5AR2 (GeneID 27202),3,-0.276,76,62.7
C5AR2 (GeneID 27202),4,-0.67,61,38.3
IL26 (GeneID 55801),1,0.102,86.7,93.1
IL26 (GeneID 55801),2,-0.178,99.1,87.6
IL26 (GeneID 55801),3,-1.02,77.4,38
RASD2 (GeneID 23551),1,-0.182,46.4,40.9
RASD2 (GeneID 23551),2,-0.125,94.5,86.6
RASD2 (GeneID 23551),3,1.04,28.9,59.5
RASD2 (GeneID 23551),4,-0.482,61.7,44.1
MCCC2 (GeneID 64087),1,-0.00836,72.8,72.4
MCCC2 (GeneID 64087),2,1.12,35.3,76.5
MCCC2 (GeneID 64087),3,0.788,52.1,89.9
MCCC2 (GeneID 64087),4,-0.277,85.4,70.5

An excerpt from above, showing only “log2 vehicle/camptothecin viability”:
MCCC2 (GeneID 64087) #1: -0.00836
MCCC2 (GeneID 64087) #2: 1.12
